Experimental data: paper PMC5345129
These are yes or no findings as the source states them, for the method shown. Binding seen in cells or lysates may run through a third protein. Some entries that bind do so weakly or less than the wild type. Tags and fused reporters may be left off the sequences shown.

What was measured:
Assay in all cases: pull-down; GST fusion proteins bound to Glutathione Sepharose 4B; Gα variants from high-speed supernatants of transfected HEK293 cells, detergent diluted to 0.05% polyoxyethylene-10-lauryl ether; 50 mM HEPES pH 7.5, 1 mM EDTA, 3 mM dithiothreitol, 10 mM MgSO4; 2 h at 4°C; three washes; immunoblot (anti-Gα12, anti-myc or anti-EGFP); 5% of the extract kept as load; only the target purified
[1] = target: T1, GST-fusion of amino acids 2-252 of p115RhoGEF containing its RH domain (UniProt Q92888)
T1 sequence: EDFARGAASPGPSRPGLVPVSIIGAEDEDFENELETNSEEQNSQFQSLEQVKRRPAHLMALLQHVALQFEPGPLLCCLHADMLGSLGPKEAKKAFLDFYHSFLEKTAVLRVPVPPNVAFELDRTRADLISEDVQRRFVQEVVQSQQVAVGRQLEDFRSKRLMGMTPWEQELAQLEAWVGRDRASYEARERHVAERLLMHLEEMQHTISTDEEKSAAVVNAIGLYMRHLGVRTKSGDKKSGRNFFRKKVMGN

[2] = target: T2, GST-fusion of the 106-amino acid domain of AKAP-Lbc (amino acids 2567-2672) (human) (UniProt Q12802)
T2 sequence: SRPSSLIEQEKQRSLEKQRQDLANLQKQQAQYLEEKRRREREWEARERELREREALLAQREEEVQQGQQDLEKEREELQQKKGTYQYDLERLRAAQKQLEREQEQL

[3] = target: T3, GST-fusion of the 106-amino acid domain of p114RhoGEF (amino acids 686-791) (human) (UniProt Q6ZSZ5)
T3 sequence: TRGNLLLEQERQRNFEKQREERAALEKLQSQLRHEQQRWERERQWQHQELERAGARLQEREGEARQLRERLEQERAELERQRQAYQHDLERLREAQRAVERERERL

binding [1]: binds
binding [2]: no binding
binding [3]: no binding
B1: myc-tagged, constitutively active Gα12 (GTPase-deficient Q229L mutant) (protein, UniProt P27600 1-379)
chain: MSGVVRTLSRCLLPAEAGARERRAGAARDAEREARRRSRDIDALLARERRAVRRLVKILLLGAGESGKSTFLKQMRIIHGREFDQKALLEFRDTIFDNILKGSRVLVDARDKLGIPWQHSENEKHGMFLMAFENKAGLPVEPATFQLYVPALSALWRDSGIREAFSRRSEFQLGESVKYFLDNLDRIGQLNYFPSKQDILLARKATKGIVEHDFVIKKIPFKMVDVGGLRSQRQKWFQCFDGITSILFMVSSSEYDQVLMEDRRTNRLVESMNIFETIVNNKLFFNVSIILFLNKMDLLVEKVKSVSIKKHFPDFKGDPHRLEDVQRYLVQCFDRKRRNRSKPLFHHFTTAIDTENIRFVFHAVKDTILQENLKDIMLQ
